# Reference: PubChem BioAssay AID445 (National Center for Advancing Translational Sciences (NCATS), 2006)
# Some of the results follow. These are further read-outs of the screen, such as a control signal, another cell line or another target. No call is given for them. Most of these compounds were active or inconclusive in the main read-out, so they are no random draw. Potencies come from curve fits of mixed quality, noted in brackets.
# Assay: IkB Signaling
# Conditions: ABC-DLBCL IkBa-CBG/CBR dual luciferase ratio (green luciferase fused to IkBa over red control in OCI-Ly3 lymphoma cells), 4 h
# How it was run: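 Luminescence ratio of IκBα-fused green versus native red beetle luciferase in OCI-Ly3 cells, 4 h post-doxycycline with compound; red signal alone, scaled from basal (0%) to zero light (-100%), flagged nonspecific or cytotoxic effects.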
# [1] = measured here: control luc red channel unless noted
smiles,measurement,setting,value
CCOc1ccccc1CN1CCc2nc(Nc3ccc4c(c3)OCCO4)ncc2C1,AC50,[1],"25.1 µM [falling, single point]"
O=C(Nc1ccc2nc(SCC(=O)N3CCCC3)sc2c1)c1cccc(Cl)c1,AC50,[1],"25.1 µM [falling, single point]"
COc1ccc(NC(=O)Cn2c(=O)n(-c3ccc(C)cc3)c(=O)c3c2cnn3C)cc1,AC50,[1],"0.0398 µM [falling, full curve]"
CC(C)CCNC(=O)C1CCN(c2nc3ccc(Cl)cc3[nH]2)CC1,AC50,[1],"7.94 µM [falling, partial curve]"
Cc1noc(C)c1COC(=O)CCN1c2ccccc2Sc2ccccc21,AC50,[1],"12.6 µM [falling, partial curve]"
Cc1cccn2c(=O)c3cc(C(=O)NCc4cccnc4)c(=N)n(CCCO)c3nc12,AC50,[1],"25.1 µM [falling, partial curve, poor fit]"
COC(=O)c1c(C)oc2ccc(N(C(=O)c3ccncc3)S(=O)(=O)c3c(C)cc(C)cc3C)cc12,AC50,[1],"15.8 µM [falling, partial curve]"
O=C(NCc1ccccc1)c1nc(S(=O)(=O)Cc2ccccc2)ncc1Cl,AC50,[1],"7.94 µM [falling, full curve]"
CN1CCc2nc3sc(C(=O)Nc4ccccc4OC(F)(F)F)c(N)c3cc2C1,AC50,[1],"25.1 µM [falling, partial curve]"
Cc1sc2ncn(CC(=O)N3CCN(c4ccc(Cl)cc4)CC3)c(=O)c2c1S(=O)(=O)N1CCN(c2ncccn2)CC1,AC50,[1],"10 µM [falling, partial curve]"
CSC(=O)CC(=O)NC(=O)c1ccccc1,AC50,[1],"20 µM [falling, partial curve]"
CC1=Nc2cc(C(=O)NCCc3ccccc3)ccc2Sc2c(C)ccc(C)c21,AC50,[1],"3.98 µM [rising, partial curve]"
CC1(C)CC(=O)C(Sc2nnc(-c3ccc(NS(C)(=O)=O)cc3)n2Cc2ccco2)C(=O)C1,AC50,measured here: IkB-luc green channel,"10 µM [rising, partial curve]"
same,AC50,measured here: control luc red channel,"5.01 µM [rising, full curve, poor fit]"
CCCN(CCC)CCNC(=O)c1ccc2c(c1)NC(=O)C(CS(=O)(=O)Cc1cccc(Br)c1)N2 (centres undefined),AC50,[1],"39.8 µM [falling, partial curve]"
COc1ccc(NC(=O)c2ccc3c(SCC(=O)O)c4c(nc3c2)CCC4)c(OC)c1,AC50,[1],"39.8 µM [falling, single point]"
CCOc1ccccc1N1CC(c2nc3ccccc3n2Cc2c(C)cc(C)cc2C)CC1=O (centres undefined),AC50,[1],"20 µM [falling, partial curve]"
Cc1ccccc1C(=O)Nc1c(C)nc(Nc2ccccc2)nc1Nc1ccccc1,AC50,[1],"7.94 µM [falling, full curve]"
c1ccc(Cn2nnc3c(N4CCN(Cc5ccc6c(c5)OCO6)CC4)ncnc32)cc1,AC50,[1],"25.1 µM [falling, partial curve]"
Cc1cccc(N2CCN(C(=O)c3cc4c(=O)n(C)c5ccccc5c4s3)CC2C)c1 (centres undefined),AC50,[1],"15.8 µM [falling, partial curve]"
COc1ccc(NC(=O)c2c(C)oc3ccc(O)c(CN4CCCCCC4)c23)cc1Cl,AC50,[1],"20 µM [falling, single point]"
Cc1cccc(C(=O)Nc2c(C(=O)NCc3ccc(Cl)cc3)sc3nc(C)cc(C)c23)c1,AC50,[1],"31.6 µM [falling, partial curve]"
COc1ccc(OC)c(CCNC(=O)c2cnn(-c3ccccc3Cl)c2C2CCN(C(=O)OC(C)(C)C)CC2)c1,AC50,[1],"25.1 µM [falling, partial curve]"
COc1ccc(CCNC(=O)c2cn(C)c3ccc(S(=O)(=O)N(C)C4CCCCC4)cc3c2=O)cc1OC,AC50,[1],"3.16 µM [rising, full curve]"
CC(=O)Nc1ccc(S(=O)(=O)Nc2cc(-c3cn4ccccc4n3)ccc2C)cc1,AC50,[1],"39.8 µM [falling, partial curve]"
COc1ccccc1NC(=O)C1=C(C)Nc2nnnn2C1c1cc(Br)c(O)c(OC)c1 (centres undefined),AC50,[1],"6.31 µM [falling, partial curve]"
COc1ccc(NC(=O)c2cnc(Nc3ccc(C)c(Cl)c3)c3ccccc23)cc1OC,AC50,[1],"0.631 µM [falling, full curve]"
N#C/C(C(=O)NCc1ccco1)=C1/SC=C(c2ccccc2)N1c1ccccc1,AC50,[1],"25.1 µM [rising, partial curve] [measured here: IkB-luc green channel]"
CC1=Nc2cc(C(=O)NCCc3ccc(Cl)cc3)ccc2Sc2c(C)ccc(C)c21,AC50,[1],"3.98 µM [rising, partial curve]"
c1ccc2c(c1)CCC[C@@H]2C1=NCCN1,AC50,[1],"7.94 µM [rising, partial curve]"
CC1CCCCN1CCCNC(=O)c1cc(Sc2ccc(Cl)cc2)nc2ccccc12 (centres undefined),AC50,[1],"15.8 µM [falling, partial curve]"
CCOC(=O)CC(=O)CSc1nc2ccccc2c(=O)n1CCc1ccc(S(N)(=O)=O)cc1,AC50,[1],"7.94 µM [falling, partial curve]"
O=S(=O)(c1ccc2c(c1)OCCO2)N1CCC(n2cnc3cc(F)ccc32)CC1,AC50,[1],"15.8 µM [falling, partial curve]"
COc1ccccc1CNC(=O)c1oc2ccc3c(c2c1C)C(=O)CC(C)(C)O3,AC50,[1],"0.794 µM [rising, full curve]"
CCOc1ccc(-n2nc3ccc(NC(=O)c4ccc(-c5cccc(Cl)c5)o4)cc3n2)cc1,AC50,[1],"31.6 µM [falling, partial curve]"
Cc1nc2scc(C)n2c(=O)c1S(=O)(=O)Nc1cccc(C(F)(F)F)c1,AC50,[1],"39.8 µM [falling, single point]"
CN1CCc2nc3sc(C(=O)Nc4ccccc4C(F)(F)F)c(N)c3cc2C1,AC50,[1],"31.6 µM [falling, single point]"
O=C(Nc1ccccc1C(=O)NCc1ccc(Cl)cc1)c1ccco1,AC50,[1],"7.94 µM [falling, full curve, poor fit]"
CCCC1=Nc2cc(C(=O)N3CCC(C)CC3)ccc2Sc2ccc(C)cc21,AC50,[1],"31.6 µM [falling, single point]"

# Some of the entries above, set out differently:
smiles | measurement | setting | value
CCOc1ccccc1CN1CCc2nc(Nc3ccc4c(c3)OCCO4)ncc2C1 | AC50 | [1] | 25.1 µM [falling, single point]
CC1=Nc2cc(C(=O)NCCc3ccccc3)ccc2Sc2c(C)ccc(C)c21 | AC50 | [1] | 3.98 µM [rising, partial curve]
COc1ccc(NC(=O)c2c(C)oc3ccc(O)c(CN4CCCCCC4)c23)cc1Cl | AC50 | [1] | 20 µM [falling, single point]
CC1=Nc2cc(C(=O)NCCc3ccc(Cl)cc3)ccc2Sc2c(C)ccc(C)c21 | AC50 | [1] | 3.98 µM [rising, partial curve]
CCOC(=O)CC(=O)CSc1nc2ccccc2c(=O)n1CCc1ccc(S(N)(=O)=O)cc1 | AC50 | [1] | 7.94 µM [falling, partial curve]
O=S(=O)(c1ccc2c(c1)OCCO2)N1CCC(n2cnc3cc(F)ccc32)CC1 | AC50 | [1] | 15.8 µM [falling, partial curve]
CCOc1ccc(-n2nc3ccc(NC(=O)c4ccc(-c5cccc(Cl)c5)o4)cc3n2)cc1 | AC50 | [1] | 31.6 µM [falling, partial curve]
CN1CCc2nc3sc(C(=O)Nc4ccccc4C(F)(F)F)c(N)c3cc2C1 | AC50 | [1] | 31.6 µM [falling, single point]
